No constants are given. Whether binding was seen depends on the method and setting. In cells and extracts the contact can be indirect. Here binding means that the protein was enriched with, or labelled near, the bait; the list need not be complete.

Sequences of proteins named here, by UniProt entry; tags and fusion partners are left off.
UniProt P60520: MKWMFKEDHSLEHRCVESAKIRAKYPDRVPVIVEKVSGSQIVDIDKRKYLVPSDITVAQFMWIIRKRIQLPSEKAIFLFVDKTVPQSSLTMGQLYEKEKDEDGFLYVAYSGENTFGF
UniProt Q15154: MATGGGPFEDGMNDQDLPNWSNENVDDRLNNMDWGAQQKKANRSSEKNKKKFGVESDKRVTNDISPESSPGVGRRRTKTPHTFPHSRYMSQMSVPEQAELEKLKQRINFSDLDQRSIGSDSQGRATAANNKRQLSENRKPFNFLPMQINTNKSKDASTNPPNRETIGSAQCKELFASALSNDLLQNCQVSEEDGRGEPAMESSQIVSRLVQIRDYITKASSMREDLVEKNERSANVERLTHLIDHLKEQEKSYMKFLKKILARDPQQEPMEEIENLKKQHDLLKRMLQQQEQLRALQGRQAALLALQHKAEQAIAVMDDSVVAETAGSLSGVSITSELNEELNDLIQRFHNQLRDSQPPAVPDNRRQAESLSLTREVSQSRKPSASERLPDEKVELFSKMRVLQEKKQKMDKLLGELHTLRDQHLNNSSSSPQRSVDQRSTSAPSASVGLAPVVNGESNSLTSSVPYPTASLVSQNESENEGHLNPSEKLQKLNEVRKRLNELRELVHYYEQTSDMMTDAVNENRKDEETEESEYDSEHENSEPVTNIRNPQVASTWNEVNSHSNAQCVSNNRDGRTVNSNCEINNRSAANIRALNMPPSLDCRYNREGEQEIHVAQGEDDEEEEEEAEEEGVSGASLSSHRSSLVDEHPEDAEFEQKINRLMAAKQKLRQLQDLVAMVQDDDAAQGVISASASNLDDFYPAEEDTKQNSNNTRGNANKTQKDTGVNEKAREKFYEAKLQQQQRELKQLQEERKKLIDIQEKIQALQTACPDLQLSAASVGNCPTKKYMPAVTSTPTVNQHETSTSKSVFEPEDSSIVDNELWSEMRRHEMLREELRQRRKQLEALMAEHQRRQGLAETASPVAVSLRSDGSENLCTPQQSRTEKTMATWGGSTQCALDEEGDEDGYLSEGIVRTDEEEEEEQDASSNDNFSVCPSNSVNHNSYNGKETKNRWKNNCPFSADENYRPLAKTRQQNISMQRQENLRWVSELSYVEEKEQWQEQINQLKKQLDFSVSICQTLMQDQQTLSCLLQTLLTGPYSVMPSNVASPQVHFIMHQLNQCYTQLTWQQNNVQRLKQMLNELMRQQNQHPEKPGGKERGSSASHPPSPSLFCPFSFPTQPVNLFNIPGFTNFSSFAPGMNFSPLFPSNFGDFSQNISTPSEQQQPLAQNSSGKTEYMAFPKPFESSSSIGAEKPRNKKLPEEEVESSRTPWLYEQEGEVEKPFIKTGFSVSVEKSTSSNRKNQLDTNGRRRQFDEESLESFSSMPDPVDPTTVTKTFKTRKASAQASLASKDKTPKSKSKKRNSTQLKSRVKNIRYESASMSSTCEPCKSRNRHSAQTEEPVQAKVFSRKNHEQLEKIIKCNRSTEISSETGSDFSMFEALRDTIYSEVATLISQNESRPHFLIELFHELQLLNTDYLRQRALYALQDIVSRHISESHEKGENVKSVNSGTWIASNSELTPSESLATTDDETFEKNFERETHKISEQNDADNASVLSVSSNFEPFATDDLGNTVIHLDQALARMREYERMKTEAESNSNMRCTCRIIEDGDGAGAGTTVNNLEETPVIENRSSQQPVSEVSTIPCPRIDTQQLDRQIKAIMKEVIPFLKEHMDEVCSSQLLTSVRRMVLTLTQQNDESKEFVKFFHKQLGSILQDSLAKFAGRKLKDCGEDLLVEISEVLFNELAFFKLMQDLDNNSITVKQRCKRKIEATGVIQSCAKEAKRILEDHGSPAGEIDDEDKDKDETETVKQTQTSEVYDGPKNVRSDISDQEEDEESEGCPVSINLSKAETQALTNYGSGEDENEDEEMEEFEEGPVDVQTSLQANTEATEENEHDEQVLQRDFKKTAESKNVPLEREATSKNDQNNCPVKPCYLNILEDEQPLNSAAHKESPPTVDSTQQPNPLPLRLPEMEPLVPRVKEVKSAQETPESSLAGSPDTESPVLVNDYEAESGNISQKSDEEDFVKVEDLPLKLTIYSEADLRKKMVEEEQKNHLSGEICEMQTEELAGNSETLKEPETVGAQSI

The source of these data is PMC6744468.

The target of the assay is GFP-GABARAPL2 (human) (UniProt P60520). Description: affinity purification with mass spectrometry; GFP-trap MA beads on lysates of doxycycline-induced stable MCF7 cells (GFP-GABARAP, GFP-GABARAPL2, GFP-LC3B or GFP-3xFLAG control), standard IP lysis buffer (50 mM HEPES pH 7.4, 100 mM NaCl, 0.5% Triton-X100), 90 min, LC-MS, biological quadruplicates.

With “pericentriolar material 1 (PCM1), endogenous (from UniProt Q15154 1-2024)”, the binding entry is recorded as “binds”.
